Results as given in PMC6339410.
Like-named read-outs stand apart in the source and are kept apart here. No constants are given. Whether binding was seen depends on the method and setting. Binding seen in cells or lysates may run through a third protein. Some results given as binding are weak or reduced against the parent protein; the word gives no strength. For some assays here: Sequences can lack the tags named with a protein.

Sequences of proteins named here, by UniProt entry; tags and fusion partners are left off.
UniProt P35226: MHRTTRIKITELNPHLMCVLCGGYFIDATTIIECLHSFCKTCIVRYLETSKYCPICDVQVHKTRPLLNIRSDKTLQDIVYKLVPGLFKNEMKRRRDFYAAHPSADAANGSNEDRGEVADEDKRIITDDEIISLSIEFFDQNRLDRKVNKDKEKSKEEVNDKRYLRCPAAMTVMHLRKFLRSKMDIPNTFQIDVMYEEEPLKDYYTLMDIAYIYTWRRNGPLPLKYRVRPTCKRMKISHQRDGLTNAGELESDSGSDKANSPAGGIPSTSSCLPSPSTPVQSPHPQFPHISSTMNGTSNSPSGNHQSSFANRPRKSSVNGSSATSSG

Legend:
[1] = target: T1, RNF144A (Ring Finger protein 144A) (human (endogenous in PN12 and MES23 glioma stem cells)) (UniProt P50876); experiment: co-IP; Pierce Crosslink magnetic IP and Co-IP kit; lysates of PN12 and MES23 glioma stem cells, untransfected or transfected with the indicated plasmids; IP with anti-ZDHHC18, anti-ZDHHC23 or anti-RNF144A antibodies, western blot
T1 sequence: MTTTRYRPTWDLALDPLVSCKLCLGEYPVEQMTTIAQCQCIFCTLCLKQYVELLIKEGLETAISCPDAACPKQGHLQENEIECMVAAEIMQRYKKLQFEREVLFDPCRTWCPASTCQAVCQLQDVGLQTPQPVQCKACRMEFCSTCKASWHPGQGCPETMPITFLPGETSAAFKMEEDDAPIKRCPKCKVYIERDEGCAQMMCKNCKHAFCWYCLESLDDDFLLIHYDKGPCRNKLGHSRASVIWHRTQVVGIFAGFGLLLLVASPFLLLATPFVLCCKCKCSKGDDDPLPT

[2] = target: T2, ZDHHC18 (human (endogenous in PN12 and MES23 glioma stem cells)) (UniProt Q9NUE0); experiment: as above
T2 sequence: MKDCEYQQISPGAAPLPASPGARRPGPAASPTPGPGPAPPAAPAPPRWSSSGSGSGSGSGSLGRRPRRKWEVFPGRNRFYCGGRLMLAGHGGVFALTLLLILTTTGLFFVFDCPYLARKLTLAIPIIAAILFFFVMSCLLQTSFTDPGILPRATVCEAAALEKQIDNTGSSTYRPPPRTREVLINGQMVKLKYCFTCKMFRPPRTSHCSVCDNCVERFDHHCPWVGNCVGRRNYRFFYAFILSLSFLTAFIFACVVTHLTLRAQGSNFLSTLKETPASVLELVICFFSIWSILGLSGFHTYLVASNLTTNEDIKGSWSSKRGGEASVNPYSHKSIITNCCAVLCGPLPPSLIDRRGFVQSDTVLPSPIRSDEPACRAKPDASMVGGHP

[3] = target: T1, RNF144A (Ring Finger protein 144A) (human (endogenous in PN12 and MES23 glioma stem cells)); experiment: as above; remark: listed apart in the source
Myc-RNF144A = target: T3, Myc-RNF144A (UniProt P50876); experiment: co-IP; lysates of 293 T cells expressing FLAG-ZDHHC18, HA-ZDHHC23 and Myc-RNF144A; immunoprecipitation, then blots with anti-FLAG, anti-HA and anti-Myc antibodies
T3 sequence: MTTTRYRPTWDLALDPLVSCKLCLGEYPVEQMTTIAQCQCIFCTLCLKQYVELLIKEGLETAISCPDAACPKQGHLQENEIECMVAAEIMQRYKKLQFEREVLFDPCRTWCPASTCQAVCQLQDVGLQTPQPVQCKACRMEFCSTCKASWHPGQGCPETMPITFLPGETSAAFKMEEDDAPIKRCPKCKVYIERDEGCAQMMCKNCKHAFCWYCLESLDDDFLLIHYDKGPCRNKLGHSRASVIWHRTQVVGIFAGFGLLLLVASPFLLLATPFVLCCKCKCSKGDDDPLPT

[4] = target: T4, ZDHHC23 (human (endogenous in PN12 and MES23 glioma stem cells)) (UniProt Q8IYP9); experiment: co-IP; Pierce Crosslink magnetic IP and Co-IP kit; lysates of PN12 and MES23 glioma stem cells, untransfected or transfected with the indicated plasmids; IP with anti-ZDHHC18, anti-ZDHHC23 or anti-RNF144A antibodies, western blot
T4 sequence: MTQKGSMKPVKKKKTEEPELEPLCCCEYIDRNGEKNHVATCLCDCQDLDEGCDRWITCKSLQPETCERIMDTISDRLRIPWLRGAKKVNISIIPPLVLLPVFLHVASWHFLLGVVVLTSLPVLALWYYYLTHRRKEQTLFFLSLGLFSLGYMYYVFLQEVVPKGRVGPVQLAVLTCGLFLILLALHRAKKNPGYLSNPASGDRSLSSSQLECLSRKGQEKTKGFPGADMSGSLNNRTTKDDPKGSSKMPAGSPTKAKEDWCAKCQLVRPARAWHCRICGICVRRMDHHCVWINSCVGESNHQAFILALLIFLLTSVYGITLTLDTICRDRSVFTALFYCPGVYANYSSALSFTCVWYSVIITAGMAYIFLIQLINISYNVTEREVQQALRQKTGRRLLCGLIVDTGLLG

Molecule: BMI1 polycomb ring finger oncogene (BMI1) (from UniProt P35226 1-326)
- binding [1]: binds

B1: ZDHHC23 (protein, UniProt Q8IYP9 1-409)
chain: MTQKGSMKPVKKKKTEEPELEPLCCCEYIDRNGEKNHVATCLCDCQDLDEGCDRWITCKSLQPETCERIMDTISDRLRIPWLRGAKKVNISIIPPLVLLPVFLHVASWHFLLGVVVLTSLPVLALWYYYLTHRRKEQTLFFLSLGLFSLGYMYYVFLQEVVPKGRVGPVQLAVLTCGLFLILLALHRAKKNPGYLSNPASGDRSLSSSQLECLSRKGQEKTKGFPGADMSGSLNNRTTKDDPKGSSKMPAGSPTKAKEDWCAKCQLVRPARAWHCRICGICVRRMDHHCVWINSCVGESNHQAFILALLIFLLTSVYGITLTLDTICRDRSVFTALFYCPGVYANYSSALSFTCVWYSVIITAGMAYIFLIQLINISYNVTEREVQQALRQKTGRRLLCGLIVDTGLLG
- binding [2]: binds

B2: ZDHHC18, over-expressed (LentiORF) (protein, UniProt Q9NUE0 1-388)
chain: MKDCEYQQISPGAAPLPASPGARRPGPAASPTPGPGPAPPAAPAPPRWSSSGSGSGSGSGSLGRRPRRKWEVFPGRNRFYCGGRLMLAGHGGVFALTLLLILTTTGLFFVFDCPYLARKLTLAIPIIAAILFFFVMSCLLQTSFTDPGILPRATVCEAAALEKQIDNTGSSTYRPPPRTREVLINGQMVKLKYCFTCKMFRPPRTSHCSVCDNCVERFDHHCPWVGNCVGRRNYRFFYAFILSLSFLTAFIFACVVTHLTLRAQGSNFLSTLKETPASVLELVICFFSIWSILGLSGFHTYLVASNLTTNEDIKGSWSSKRGGEASVNPYSHKSIITNCCAVLCGPLPPSLIDRRGFVQSDTVLPSPIRSDEPACRAKPDASMVGGHP
- binding [3]: binds

B3: ZDHHC23, over-expressed (LentiORF) (protein, UniProt Q8IYP9 1-409)
chain: MTQKGSMKPVKKKKTEEPELEPLCCCEYIDRNGEKNHVATCLCDCQDLDEGCDRWITCKSLQPETCERIMDTISDRLRIPWLRGAKKVNISIIPPLVLLPVFLHVASWHFLLGVVVLTSLPVLALWYYYLTHRRKEQTLFFLSLGLFSLGYMYYVFLQEVVPKGRVGPVQLAVLTCGLFLILLALHRAKKNPGYLSNPASGDRSLSSSQLECLSRKGQEKTKGFPGADMSGSLNNRTTKDDPKGSSKMPAGSPTKAKEDWCAKCQLVRPARAWHCRICGICVRRMDHHCVWINSCVGESNHQAFILALLIFLLTSVYGITLTLDTICRDRSVFTALFYCPGVYANYSSALSFTCVWYSVIITAGMAYIFLIQLINISYNVTEREVQQALRQKTGRRLLCGLIVDTGLLG
- binding [3]: binds

B4: FLAG-ZDHHC18 (protein, UniProt Q9NUE0 1-388)
chain: MKDCEYQQISPGAAPLPASPGARRPGPAASPTPGPGPAPPAAPAPPRWSSSGSGSGSGSGSLGRRPRRKWEVFPGRNRFYCGGRLMLAGHGGVFALTLLLILTTTGLFFVFDCPYLARKLTLAIPIIAAILFFFVMSCLLQTSFTDPGILPRATVCEAAALEKQIDNTGSSTYRPPPRTREVLINGQMVKLKYCFTCKMFRPPRTSHCSVCDNCVERFDHHCPWVGNCVGRRNYRFFYAFILSLSFLTAFIFACVVTHLTLRAQGSNFLSTLKETPASVLELVICFFSIWSILGLSGFHTYLVASNLTTNEDIKGSWSSKRGGEASVNPYSHKSIITNCCAVLCGPLPPSLIDRRGFVQSDTVLPSPIRSDEPACRAKPDASMVGGHP
- binding (Myc-RNF144A): binds

B5: HA-ZDHHC23 (protein, UniProt Q8IYP9 1-409)
chain: MTQKGSMKPVKKKKTEEPELEPLCCCEYIDRNGEKNHVATCLCDCQDLDEGCDRWITCKSLQPETCERIMDTISDRLRIPWLRGAKKVNISIIPPLVLLPVFLHVASWHFLLGVVVLTSLPVLALWYYYLTHRRKEQTLFFLSLGLFSLGYMYYVFLQEVVPKGRVGPVQLAVLTCGLFLILLALHRAKKNPGYLSNPASGDRSLSSSQLECLSRKGQEKTKGFPGADMSGSLNNRTTKDDPKGSSKMPAGSPTKAKEDWCAKCQLVRPARAWHCRICGICVRRMDHHCVWINSCVGESNHQAFILALLIFLLTSVYGITLTLDTICRDRSVFTALFYCPGVYANYSSALSFTCVWYSVIITAGMAYIFLIQLINISYNVTEREVQQALRQKTGRRLLCGLIVDTGLLG
- binding (Myc-RNF144A): binds

B6: RNF144A (Ring Finger protein 144A) (protein, UniProt P50876 1-292)
chain: MTTTRYRPTWDLALDPLVSCKLCLGEYPVEQMTTIAQCQCIFCTLCLKQYVELLIKEGLETAISCPDAACPKQGHLQENEIECMVAAEIMQRYKKLQFEREVLFDPCRTWCPASTCQAVCQLQDVGLQTPQPVQCKACRMEFCSTCKASWHPGQGCPETMPITFLPGETSAAFKMEEDDAPIKRCPKCKVYIERDEGCAQMMCKNCKHAFCWYCLESLDDDFLLIHYDKGPCRNKLGHSRASVIWHRTQVVGIFAGFGLLLLVASPFLLLATPFVLCCKCKCSKGDDDPLPT
- binding [4]: binds
- binding [2]: binds
